According to article doi:10.1101/2020.08.06.240739:
No constants are given. Whether binding was seen depends on the method and setting. Binding seen in cells or lysates may run through a third protein. These calls come from enrichment with a bait or labelling near it, and not all partners need be listed. Tags and fused reporters may be left off the sequences shown.

Sequences of proteins named here, by UniProt entry; tags and fusion partners are left off.
UniProt O96017: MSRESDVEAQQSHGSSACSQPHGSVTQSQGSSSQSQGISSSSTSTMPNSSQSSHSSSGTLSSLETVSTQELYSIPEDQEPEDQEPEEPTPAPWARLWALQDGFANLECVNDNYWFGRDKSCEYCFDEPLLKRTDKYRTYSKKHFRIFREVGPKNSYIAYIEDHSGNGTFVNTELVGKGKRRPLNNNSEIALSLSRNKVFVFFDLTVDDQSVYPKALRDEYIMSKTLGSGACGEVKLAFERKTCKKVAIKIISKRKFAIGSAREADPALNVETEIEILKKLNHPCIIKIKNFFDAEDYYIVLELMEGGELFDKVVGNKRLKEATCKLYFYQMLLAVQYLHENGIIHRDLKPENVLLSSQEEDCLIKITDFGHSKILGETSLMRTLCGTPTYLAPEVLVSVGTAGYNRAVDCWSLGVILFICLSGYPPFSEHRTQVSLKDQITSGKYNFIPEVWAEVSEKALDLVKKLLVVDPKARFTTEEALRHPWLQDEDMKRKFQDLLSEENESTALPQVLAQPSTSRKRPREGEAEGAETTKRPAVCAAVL

Target: T1, Flag-tagged OGT (O-GlcNAc transferase) (UniProt O15294)
T1 sequence: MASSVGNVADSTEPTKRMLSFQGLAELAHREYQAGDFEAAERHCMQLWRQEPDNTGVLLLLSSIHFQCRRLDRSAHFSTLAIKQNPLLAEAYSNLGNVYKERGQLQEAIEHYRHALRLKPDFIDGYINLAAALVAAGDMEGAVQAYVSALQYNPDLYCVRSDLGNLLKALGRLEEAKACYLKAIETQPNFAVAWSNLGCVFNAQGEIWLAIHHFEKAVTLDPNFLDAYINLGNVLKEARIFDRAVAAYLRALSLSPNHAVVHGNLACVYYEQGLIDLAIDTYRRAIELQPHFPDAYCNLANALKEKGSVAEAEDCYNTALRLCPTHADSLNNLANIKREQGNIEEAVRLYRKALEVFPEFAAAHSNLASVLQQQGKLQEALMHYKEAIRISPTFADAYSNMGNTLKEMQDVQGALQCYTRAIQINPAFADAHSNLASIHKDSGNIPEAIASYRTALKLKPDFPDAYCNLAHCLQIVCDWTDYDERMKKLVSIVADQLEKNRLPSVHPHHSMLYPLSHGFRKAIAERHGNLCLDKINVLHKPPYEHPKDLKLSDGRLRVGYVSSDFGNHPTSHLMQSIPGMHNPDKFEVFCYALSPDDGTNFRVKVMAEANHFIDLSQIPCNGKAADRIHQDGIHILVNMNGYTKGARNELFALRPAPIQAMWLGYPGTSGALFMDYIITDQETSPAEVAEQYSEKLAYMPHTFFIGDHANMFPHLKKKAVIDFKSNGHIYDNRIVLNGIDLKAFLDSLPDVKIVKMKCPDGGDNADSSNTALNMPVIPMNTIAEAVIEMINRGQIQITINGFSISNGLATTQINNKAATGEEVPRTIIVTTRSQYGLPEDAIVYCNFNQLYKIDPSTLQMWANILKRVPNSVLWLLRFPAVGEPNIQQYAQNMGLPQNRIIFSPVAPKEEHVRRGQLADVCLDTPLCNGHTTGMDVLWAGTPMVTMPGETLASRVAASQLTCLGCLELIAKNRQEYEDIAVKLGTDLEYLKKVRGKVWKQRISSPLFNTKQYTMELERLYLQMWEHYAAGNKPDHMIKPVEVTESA
Assay: affinity purification with mass spectrometry

binding: binds
Substance: checkpoint kinase 2 (CHK2), endogenous (from UniProt O96017 1-543)
